Patent CN112625131A
These are yes or no findings as the source states them, for the method shown. Some results given as binding are weak or reduced against the parent protein; the word gives no strength.

Protein sequences, listed by entry. Tags and fused reporters are not part of them. Residues count along the entry.
UniProt P08581, residues 25-932: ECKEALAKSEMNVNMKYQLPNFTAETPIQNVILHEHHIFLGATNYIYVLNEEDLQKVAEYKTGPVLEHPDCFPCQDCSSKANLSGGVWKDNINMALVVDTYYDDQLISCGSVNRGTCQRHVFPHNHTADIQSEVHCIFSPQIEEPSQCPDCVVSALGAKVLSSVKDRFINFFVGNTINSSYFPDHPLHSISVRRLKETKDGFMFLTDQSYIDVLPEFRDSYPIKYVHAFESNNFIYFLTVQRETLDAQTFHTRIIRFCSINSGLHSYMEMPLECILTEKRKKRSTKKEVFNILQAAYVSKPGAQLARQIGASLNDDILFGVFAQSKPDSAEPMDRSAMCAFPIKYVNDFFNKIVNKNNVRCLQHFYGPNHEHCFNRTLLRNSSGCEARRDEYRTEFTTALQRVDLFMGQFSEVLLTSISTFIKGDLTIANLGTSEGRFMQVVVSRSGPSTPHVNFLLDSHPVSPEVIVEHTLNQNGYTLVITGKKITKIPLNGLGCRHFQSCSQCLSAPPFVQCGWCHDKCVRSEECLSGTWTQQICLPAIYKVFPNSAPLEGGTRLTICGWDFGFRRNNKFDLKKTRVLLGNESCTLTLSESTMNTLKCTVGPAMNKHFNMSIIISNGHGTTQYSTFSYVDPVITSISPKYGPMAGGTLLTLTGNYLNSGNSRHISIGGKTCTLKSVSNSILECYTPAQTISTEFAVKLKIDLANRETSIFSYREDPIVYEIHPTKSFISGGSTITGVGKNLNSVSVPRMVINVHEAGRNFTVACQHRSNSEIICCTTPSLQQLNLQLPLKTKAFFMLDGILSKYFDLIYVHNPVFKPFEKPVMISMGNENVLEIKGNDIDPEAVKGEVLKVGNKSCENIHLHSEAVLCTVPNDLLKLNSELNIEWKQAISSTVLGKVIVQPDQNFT

B1: 3C36 scFv clone (phage-displayed single-chain antibody) (scFv)
scFv: DIVLTQSPGTLSVTPGDSVSLSCRASQSISSYLHWYQQKSHESPRLLIKYASQSISGIPSRFSGSGSGTDFTLSINSVETEDFGMYFCQQSKSWPFTFGSGTKLEIKSSGGGGSGGGGGGSSRSSEVQLQQSGPELVKPGASVKLSCKASGYTFTSYWIHWVKQRPGQGLEWIGEINPSNGHTYYTEKFKIKATMTLDKSSSTAYMQLSSLTSEDSAVYFCGRYPKGGYFDVWGAGTTVTVSS
B2: 1D20 scFv clone (phage-displayed single-chain antibody) (scFv)
scFv: DIQMTQTTSSLSASLGDRVTISCRASQDISNYLNWYQQKPDGTVKLLIYYTSRLHSGVPSRFSGSGSGTDYSLTISNLEQEDIATYFCQQGNTLFTFGSGTKLEIKSSGGGGSGGGGGGSSRSSEVQLQQSGDDLVKPGASVKLSCKASGYSFTGYFMDWVMQSHGKSLEWIGRINPNNGDTFYNQKFKGKATLTVDKSSSTAHMELRSLASEDSAVYYCARMKLIGSYMDYWGQGTSVTVSS

Molecular target: HIS-tagged human c-Met extracellular antigen (NP_000236) (Met 1-Thr 932) (human) (UniProt P08581)
Test: phage ELISA on coated c-Met antigen

Binder	binding
B1	binds
B2	binds
